Reference: publication PMC5087487, “A Graphene Oxide-Based Fluorescent Method for the Detection of Human Chorionic Gonadotropin” (Sensors (Basel, Switzerland), 2016)
These are yes or no findings as the source states them, for the method shown. Each block holds one substance with its values, some of them ahead of it.

The chains behind the UniProt entries cited, without tags or fusion partners. Where a name states a change or a piece, a line headed by the entry shows the natural chain unless it says otherwise. Residues count along the entry.
UniProt P02769, residues 25-607: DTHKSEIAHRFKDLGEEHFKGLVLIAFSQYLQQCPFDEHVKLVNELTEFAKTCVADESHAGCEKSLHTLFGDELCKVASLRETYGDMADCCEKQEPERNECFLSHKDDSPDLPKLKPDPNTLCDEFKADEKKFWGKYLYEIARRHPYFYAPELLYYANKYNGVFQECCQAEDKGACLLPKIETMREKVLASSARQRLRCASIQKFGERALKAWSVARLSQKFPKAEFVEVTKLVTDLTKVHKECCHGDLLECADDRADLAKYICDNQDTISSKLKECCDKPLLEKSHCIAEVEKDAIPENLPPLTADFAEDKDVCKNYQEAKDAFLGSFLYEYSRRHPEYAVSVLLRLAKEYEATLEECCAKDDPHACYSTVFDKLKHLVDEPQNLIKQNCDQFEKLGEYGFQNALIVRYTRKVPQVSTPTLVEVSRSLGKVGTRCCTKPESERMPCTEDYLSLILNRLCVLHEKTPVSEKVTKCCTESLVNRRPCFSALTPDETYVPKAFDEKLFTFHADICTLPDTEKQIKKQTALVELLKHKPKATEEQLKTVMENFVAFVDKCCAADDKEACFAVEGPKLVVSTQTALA
UniProt P01215: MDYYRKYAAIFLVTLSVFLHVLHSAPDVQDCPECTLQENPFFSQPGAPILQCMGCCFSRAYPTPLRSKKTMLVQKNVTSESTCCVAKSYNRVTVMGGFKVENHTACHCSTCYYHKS

Assays:
[1] = target: T1, FITC-labeled hCG-specific binding peptide aptamer FITC-…; test: other fluorescence titration; 50 nM FITC-peptide first adsorbed on graphene oxide (2 ug/mL, 10 min, fluorescence quenched); protein added, 15 min at room temperature, PBS 20 mM pH 7.2; recovery of fluorescence (excitation 470 nm, emission 518 nm) on release of the peptide from GO; both purified
T1 sequence (peptide, fluorescein isothiocyanate (FITC) on the N-terminus): PPLRINRHILTR

[2] = target: T1, FITC-labeled hCG-specific binding peptide aptamer FITC-…; test: condition: serum sample with 16.14 mIU/mL FSH, 50 uL in 200 uL; other fluorescence titration; as a1, but the sample is centrifuged human serum: 50 uL supernatant + 50 uL PBS + 100 uL FITC-peptide/GO solution; only the target purified
[3] = target: T1, FITC-labeled hCG-specific binding peptide aptamer FITC-…; test: condition: serum sample with 11.82 mIU/mL LH, 50 uL in 200 uL; other fluorescence titration; as a1, but the sample is centrifuged human serum: 50 uL supernatant + 50 uL PBS + 100 uL FITC-peptide/GO solution; only the target purified
[4] = target: T1, FITC-labeled hCG-specific binding peptide aptamer FITC-…; test: condition: serum sample with 3.41 mIU/mL TSH, 50 uL in 200 uL; other fluorescence titration; as a1, but the sample is centrifuged human serum: 50 uL supernatant + 50 uL PBS + 100 uL FITC-peptide/GO solution; only the target purified

Substance: Beta-subunit of hCG (from UniProt P0DN86 21-165)
binding [1]: no binding (tested: 25 ng/mL)

Substance: Bovine serum albumin (from UniProt P02769 25-607)
binding [1]: no binding (tested: 10 ng/mL)

Substance: Luteotropic hormone (from UniProt P01215 25-116; P01229 21-141) (complex)
binding [3]: no binding

Continued, values first:

binding [2]: no binding
Substance: Follicle-stimulating hormone (from UniProt P01215 25-116; P01225 19-129) (complex)

binding [4]: no binding
Substance: Thyroid stimulating hormone (from UniProt P01215 25-116; P01222 21-132) (complex)
